At least one compound was matched to its structure with a doubt left.
Test system: ES cell-derived cardiomyocytes
Test: Interference of compounds with ET-1- or PE-induced hypertrophy of ES cell-derived cardiomyocytes (ANF/BNP RT-PCR);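 also: mRNA levels of ANF and BNP quantified from RT-PCR products by densitometry of bands after agarose gel separation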
Type: cell-based, mouse
Settings: compound concentration as in Table 1, summary of Table 1

COC(=O)C1=C(C)NC(C)=C(C(=O)OC)C1c1ccccc1[N+](=O)[O-] [Nifedipine]
ANF induction (up-regulation) upon ET-1 stimulation, in words (100 nM ET-1, 24 h): not
BNP induction (up-regulation) upon ET-1 stimulation, in words (100 nM ET-1, 24 h): inhibited
ANF induction (up-regulation) upon PE stimulation, in words (100 μM PE, 24 h): inhibited
BNP induction (up-regulation) upon PE stimulation, in words (100 μM PE, 24 h): inhibited
